# Results are given in words; binding and its absence hold for the method and conditions named. In cells and extracts the contact can be indirect. A yes stands for co-enrichment or nearness to the bait. Other partners may have been found. A no says only that the protein was not detected with the bait.
# T1: TAP–Bag-1S (human), Q99933
# T1 chain: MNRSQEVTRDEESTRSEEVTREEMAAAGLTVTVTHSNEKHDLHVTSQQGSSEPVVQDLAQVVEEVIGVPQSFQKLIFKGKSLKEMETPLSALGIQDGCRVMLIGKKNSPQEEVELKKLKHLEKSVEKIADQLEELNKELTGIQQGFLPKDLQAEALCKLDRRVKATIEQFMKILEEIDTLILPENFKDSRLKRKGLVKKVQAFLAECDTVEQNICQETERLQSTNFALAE
# B1: CHIP, Q9UNE7 1-303 (protein)
# chain: MKGKEEKEGGARLGAGGGSPEKSPSAQELKEQGNRLFVGRKYPEAAACYGRAITRNPLVAVYYTNRALCYLKMQQHEQALADCRRALELDGQSVKAHFFLGQCQLEMESYDEAIANLQRAYSLAKEQRLNFGDDIPSALRIAKKKRWNSIEERRIHQESELHSYLSRLIAAERERELEECQRNHEGDEDDSHVRAQQACIEAKHDKYMADMDELFSQVDEKRKKRDIPDYLCGKISFELMREPCITPSGITYDRKDIEEHLQRVGHFDPVTRSPLTQEQLIPNLAMKEVIDAFISENGWVEDY
# Molecular target: T1, TAP–Bag-1S (human), Q99933
# Assay: affinity purification with mass spectrometry; TAP-tagged Bag-1 isoform or Bag-1S mutant in lysate of transfected MCF-7 cells, captured on IgG Sepharose overnight at 4°C, released with AcTEV protease; in-solution trypsin digest, LC-MS/MS, label-free; enrichment >1.2-fold relative to TAP-only mock (mutants relative to wild-type TAP–Bag-1S)
# Conditions: remark: other sources report otherwise
binder,measurement,value
B1,binding,no binding

# From article PMC8384158
